Data from article doi:10.1101/2021.03.31.437839.
Read-outs that look alike come from different tables or passages of the source. Results are given in words; binding and its absence hold for the method and conditions named. Binding seen in cells or lysates may run through a third protein. A result given as binding can be weak or reduced; the word gives no strength.

Experiments:
Assay in all cases: co-IP
[1] = biological target: HA-JICD1 (JAG1 intracellular domain) (human) (UniProt P78504)
[2] = biological target: HA-JICD1 (JAG1 intracellular domain) (human) (UniProt P78504); remark: listed apart in the source
[3] = biological target: HA-JICD1 (JAG1 intracellular domain) (human) (UniProt P78504); remark: listed apart in the source

- binding [1]: binds
- binding [2]: binds
- binding [3]: binds
Substance: FLAG-DDX17 (DEAD-Box Helicase 17) (from UniProt Q92841 1-729)
